This passage reports step yield results from patent US10517954B2 (AMGEN INC., priority 2016, dated 2019).

The data set in a line: peptide synthesis. Conditions: late stage modification step.

The substance “4-(4-Acetoxy-2-(prop-2-yn-1-yloxy)benzyl)-4-((4S,7S,10S,13S)-10-benzyl-7-isobutyl-15-methyl-13-((R)-2-methyloxirane-2-carbonyl)-2,5,8,11-tetraoxo-4-phenethyl-3,6,9,12-tetraazahexadecyl)morpholin-4-ium methanesulfonate” returned a step yield (methanesulfonate) of 74%.

Consider “4-(4-acetoxy-3-((1-(5-((2-PEG3K-ethyl)amino)-5-oxopentyl)-1H-1,2,3-triazol-4-yl)methoxy)benzyl)-4-((4S,7S,10S,13S)-10-benzyl-7-isobutyl-15-methyl-13-((R)-2-methyloxirane-2-carbonyl)-2,5,8,11-tetraoxo-4-phenethyl-3,6,9,12-tetraazahexadecyl)morpholin-4-ium mesylate”, for which, for the setting “methanesulfonate (mesylate) by ion exchange resin”, the step yield worked out at 57%.

For “4-((4S,7S,10S,13S)-10-Benzyl-7-isobutyl-15-methyl-13-((R)-2-methyloxirane-2-carbonyl)-2,5,8,11-tetraoxo-4-phenethyl-3,6,9,12-tetraazahexadecyl)-4-(2-(prop-2-yn-1-yloxy)-4-(propionyloxy)benzyl)morpholin-4-ium methanesulfonate”, the step yield (methanesulfonate) stood at 97%.

In turn, “4-((4S,7S,10S,13S)-10-Benzyl-7-isobutyl-15-methyl-13-((R)-2-methyloxirane-2-carbonyl)-2,5,8,11-tetraoxo-4-phenethyl-3,6,9,12-tetraazahexadecyl)-4-(4-(butyryloxy)-3-(prop-2-yn-1-yloxy)benzyl)morpholin-4-ium methanesulfonate” showed a step yield (methanesulfonate) of 92%.

“4-((4S,7S,10S,13S)-10-Benzyl-7-isobutyl-15-methyl-13-((R)-2-methyloxirane-2-carbonyl)-2,5,8,11-tetraoxo-4-phenethyl-3,6,9,12-tetraazahexadecyl)-4-(4-(isobutyryloxy)-3-(prop-2-yn-1-ylcarbamoyl)benzyl)morpholin-4-ium bromide” had a step yield (methanesulfonate) of 15%.

Turning to “4-(4-Acetoxy-3-(prop-2-yn-1-yloxy)benzyl)-4-((4S,7S,10S,13S)-10-benzyl-7-isobutyl-15-methyl-13-((R)-2-methyloxirane-2-carbonyl)-2,5,8,11-tetraoxo-4-phenethyl-3,6,9,12-tetraazahexadecyl)morpholin-4-ium methanesulfonate”, the step yield (methanesulfonate) came to 50%.

In turn, “4-((4S,7S,10S,13S)-10-Benzyl-7-isobutyl-15-methyl-13-((R)-2-methyloxirane-2-carbonyl)-2,5,8,11-tetraoxo-4-phenethyl-3,6,9,12-tetraazahexadecyl)-4-(4-(isobutyryloxy)-3-(prop-2-yn-1-yloxy)benzyl)morpholin-4-ium methanesulfonate” gave a step yield (methanesulfonate) of 44%.
